# PubChem BioAssay AID686938, Drosophila RNAi Screening Center, 2013
# Purpose: 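Knock-downs reducing store-operated calcium influx in Drosophila cells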 (primary screen)
# Cell system: Drosophila S2R+ cells
# Reagents: long dsRNA against Drosophila genes, about 0.25 µg dsRNA per well, roughly 10,000 cells
# Duration: 5 days of knock-down before the calcium assay
# Conditions: thapsigargin (SERCA pump blocker) to empty calcium stores; entry signal taken 4 min after adding it
# Detection: 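Per-well fluo-4 fluorescence in two replicates, unnormalised, measured in resting cells and 4 min after store depletion by the SERCA blocker thapsigargin; ratio of the two present in few wells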
# Scale: calcium entry signal: higher = stronger calcium signal after store depletion; resting calcium signal: higher = higher resting calcium signal
# Active means: 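Called when the plate z-score of the entry-to-rest ratio, mean of duplicates, falls below −3; wells with low overall dye signal (Fmax z below −2) or more than five off-targets excluded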
# Meaning of the calls: active = strongly reduced calcium entry; inactive = no strong reduction
# The screen tested about 23,000 reagents; shown is a random part of those with a known target gene and a result. Over the whole deposit, 75 (0.33%) were called active. 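Raw plate signals without normalisation; calls rest on plate z-scores that were not deposited; ratio present for only 364 wells.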 The numbers tell different reagents against one gene apart. Not stated in the record: the dose of the treatment.
gene knocked down,reagent no.,"calcium entry signal, replicate 1 (fluorescence units)","calcium entry signal, replicate 2 (fluorescence units)","resting calcium signal, replicate 1 (fluorescence units)","resting calcium signal, replicate 2 (fluorescence units)",Outcome
Rsf1 (Repressor splicing factor 1),1,3.36e7,4.94e7,1.92e7,2.73e7,inactive
Rsf1 (Repressor splicing factor 1),2,3.14e7,4.73e7,1.60e7,2.58e7,inactive
CG12112,1,2.88e7,3.34e7,1.41e7,1.56e7,inactive
CG33642,1,3.66e7,4.77e7,1.95e7,1.98e7,inactive
CG3309,1,1.97e7,3.09e7,1.04e7,1.46e7,inactive
alphaTub85E (alpha-Tubulin at 85E),1,2.72e7,2.71e7,1.97e7,1.93e7,active
Dscam2 (Down syndrome cell adhesion molecule 2),1,5.38e7,4.67e7,2.72e7,2.30e7,inactive
Dscam2 (Down syndrome cell adhesion molecule 2),2,1.84e7,2.93e7,9.07e6,1.36e7,inactive
Dscam2 (Down syndrome cell adhesion molecule 2),3,1.35e7,2.31e7,9.05e6,1.50e7,inactive
Dscam2 (Down syndrome cell adhesion molecule 2),4,2.18e7,3.47e7,1.06e7,1.70e7,inactive
Dscam2 (Down syndrome cell adhesion molecule 2),5,1.93e7,3.35e7,1.01e7,1.55e7,inactive
Dscam2 (Down syndrome cell adhesion molecule 2),6,3.54e7,2.81e7,1.66e7,1.14e7,inactive

The list goes on (3 carried over from the part before).
gene knocked down,reagent no.,"calcium entry signal, replicate 1 (fluorescence units)","calcium entry signal, replicate 2 (fluorescence units)","resting calcium signal, replicate 1 (fluorescence units)","resting calcium signal, replicate 2 (fluorescence units)",Outcome
Dscam2 (Down syndrome cell adhesion molecule 2),4,2.18e7,3.47e7,1.06e7,1.70e7,inactive
Dscam2 (Down syndrome cell adhesion molecule 2),5,1.93e7,3.35e7,1.01e7,1.55e7,inactive
Dscam2 (Down syndrome cell adhesion molecule 2),6,3.54e7,2.81e7,1.66e7,1.14e7,inactive
"E(spl)m8-HLH (Enhancer of split m8, helix-loop-helix)",1,3.13e7,4.73e7,1.73e7,2.01e7,inactive
jumu (jumeau),1,2.71e7,3.47e7,1.63e7,1.88e7,inactive
PIG-G (Phosphatidylinositol glycan anchor biosynthesis class G),1,4.07e7,,2.06e7,,inactive
Efr (ER GDP-fucose transporter),1,3.00e7,3.39e7,1.54e7,1.76e7,inactive
LS2 (Large Subunit 2),1,1.85e7,2.71e7,1.05e7,1.26e7,inactive
sano (serrano),1,2.58e7,2.03e7,1.22e7,1.00e7,inactive
Irbp (Inverted repeat-binding protein),1,3.03e7,3.10e7,1.57e7,1.59e7,inactive
Irbp (Inverted repeat-binding protein),2,3.79e7,4.42e7,1.91e7,2.03e7,inactive
mthl10 (methuselah-like 10),1,3.60e7,3.89e7,1.71e7,1.68e7,inactive
mthl10 (methuselah-like 10),2,3.57e7,4.55e7,1.79e7,1.97e7,inactive
CG11807,1,2.28e7,2.40e7,1.00e7,1.21e7,inactive
CG34195,1,4.02e7,4.72e7,1.76e7,2.36e7,inactive
